According to PMC12476982:
Where two headings read alike, the source gives them in different places. Results are given in words; binding and its absence hold for the method and conditions named. Some binding calls cover weakened binding; strength is not graded here. One block for each molecule: values may come before it.

The chains behind the UniProt entries cited, without tags or fusion partners. Where a name states a change or a piece, a line headed by the entry shows the natural chain unless it says otherwise.
UniProt P51532: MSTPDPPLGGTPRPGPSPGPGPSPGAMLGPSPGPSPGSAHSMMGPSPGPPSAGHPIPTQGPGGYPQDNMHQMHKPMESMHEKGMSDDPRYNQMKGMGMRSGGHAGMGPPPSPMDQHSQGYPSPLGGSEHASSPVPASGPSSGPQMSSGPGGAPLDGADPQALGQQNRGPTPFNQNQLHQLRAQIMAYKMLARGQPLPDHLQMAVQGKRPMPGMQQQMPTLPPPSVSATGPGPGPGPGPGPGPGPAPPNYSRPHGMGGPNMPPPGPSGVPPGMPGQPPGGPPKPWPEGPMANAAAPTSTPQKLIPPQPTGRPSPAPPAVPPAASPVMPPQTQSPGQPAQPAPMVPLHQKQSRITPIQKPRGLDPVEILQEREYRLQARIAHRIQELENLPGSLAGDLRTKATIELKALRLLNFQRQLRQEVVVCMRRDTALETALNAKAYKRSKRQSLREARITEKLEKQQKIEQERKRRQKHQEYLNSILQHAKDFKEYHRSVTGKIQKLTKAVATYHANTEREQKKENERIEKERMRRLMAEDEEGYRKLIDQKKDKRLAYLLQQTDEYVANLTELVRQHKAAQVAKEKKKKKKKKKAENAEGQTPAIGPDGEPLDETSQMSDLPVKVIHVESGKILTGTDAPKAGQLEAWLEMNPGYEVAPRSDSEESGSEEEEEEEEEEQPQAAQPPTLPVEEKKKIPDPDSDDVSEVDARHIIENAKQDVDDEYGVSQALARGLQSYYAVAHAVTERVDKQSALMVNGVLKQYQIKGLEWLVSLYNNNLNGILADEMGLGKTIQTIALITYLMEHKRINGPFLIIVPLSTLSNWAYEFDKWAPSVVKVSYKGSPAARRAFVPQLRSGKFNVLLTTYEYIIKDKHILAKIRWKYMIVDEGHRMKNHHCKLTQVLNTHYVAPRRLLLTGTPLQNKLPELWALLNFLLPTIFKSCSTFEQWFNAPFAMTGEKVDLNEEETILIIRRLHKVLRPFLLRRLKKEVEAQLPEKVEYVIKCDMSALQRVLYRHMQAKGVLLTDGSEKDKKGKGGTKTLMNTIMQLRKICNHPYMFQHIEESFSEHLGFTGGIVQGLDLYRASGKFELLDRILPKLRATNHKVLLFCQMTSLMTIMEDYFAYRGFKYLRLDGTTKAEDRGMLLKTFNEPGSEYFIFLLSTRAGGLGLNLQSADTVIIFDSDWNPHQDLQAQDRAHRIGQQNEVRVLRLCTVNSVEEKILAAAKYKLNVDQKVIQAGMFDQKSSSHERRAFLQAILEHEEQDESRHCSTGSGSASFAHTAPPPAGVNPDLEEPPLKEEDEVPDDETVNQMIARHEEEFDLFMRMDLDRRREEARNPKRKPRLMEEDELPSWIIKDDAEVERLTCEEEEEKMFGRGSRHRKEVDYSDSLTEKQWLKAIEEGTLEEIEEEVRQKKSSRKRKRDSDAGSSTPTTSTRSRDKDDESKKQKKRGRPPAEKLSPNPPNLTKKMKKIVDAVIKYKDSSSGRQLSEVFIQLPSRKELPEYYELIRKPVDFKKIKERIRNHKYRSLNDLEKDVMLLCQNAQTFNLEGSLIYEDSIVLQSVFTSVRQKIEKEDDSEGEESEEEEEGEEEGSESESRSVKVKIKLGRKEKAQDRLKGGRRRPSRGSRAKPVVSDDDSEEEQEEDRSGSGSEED
UniProt O14497: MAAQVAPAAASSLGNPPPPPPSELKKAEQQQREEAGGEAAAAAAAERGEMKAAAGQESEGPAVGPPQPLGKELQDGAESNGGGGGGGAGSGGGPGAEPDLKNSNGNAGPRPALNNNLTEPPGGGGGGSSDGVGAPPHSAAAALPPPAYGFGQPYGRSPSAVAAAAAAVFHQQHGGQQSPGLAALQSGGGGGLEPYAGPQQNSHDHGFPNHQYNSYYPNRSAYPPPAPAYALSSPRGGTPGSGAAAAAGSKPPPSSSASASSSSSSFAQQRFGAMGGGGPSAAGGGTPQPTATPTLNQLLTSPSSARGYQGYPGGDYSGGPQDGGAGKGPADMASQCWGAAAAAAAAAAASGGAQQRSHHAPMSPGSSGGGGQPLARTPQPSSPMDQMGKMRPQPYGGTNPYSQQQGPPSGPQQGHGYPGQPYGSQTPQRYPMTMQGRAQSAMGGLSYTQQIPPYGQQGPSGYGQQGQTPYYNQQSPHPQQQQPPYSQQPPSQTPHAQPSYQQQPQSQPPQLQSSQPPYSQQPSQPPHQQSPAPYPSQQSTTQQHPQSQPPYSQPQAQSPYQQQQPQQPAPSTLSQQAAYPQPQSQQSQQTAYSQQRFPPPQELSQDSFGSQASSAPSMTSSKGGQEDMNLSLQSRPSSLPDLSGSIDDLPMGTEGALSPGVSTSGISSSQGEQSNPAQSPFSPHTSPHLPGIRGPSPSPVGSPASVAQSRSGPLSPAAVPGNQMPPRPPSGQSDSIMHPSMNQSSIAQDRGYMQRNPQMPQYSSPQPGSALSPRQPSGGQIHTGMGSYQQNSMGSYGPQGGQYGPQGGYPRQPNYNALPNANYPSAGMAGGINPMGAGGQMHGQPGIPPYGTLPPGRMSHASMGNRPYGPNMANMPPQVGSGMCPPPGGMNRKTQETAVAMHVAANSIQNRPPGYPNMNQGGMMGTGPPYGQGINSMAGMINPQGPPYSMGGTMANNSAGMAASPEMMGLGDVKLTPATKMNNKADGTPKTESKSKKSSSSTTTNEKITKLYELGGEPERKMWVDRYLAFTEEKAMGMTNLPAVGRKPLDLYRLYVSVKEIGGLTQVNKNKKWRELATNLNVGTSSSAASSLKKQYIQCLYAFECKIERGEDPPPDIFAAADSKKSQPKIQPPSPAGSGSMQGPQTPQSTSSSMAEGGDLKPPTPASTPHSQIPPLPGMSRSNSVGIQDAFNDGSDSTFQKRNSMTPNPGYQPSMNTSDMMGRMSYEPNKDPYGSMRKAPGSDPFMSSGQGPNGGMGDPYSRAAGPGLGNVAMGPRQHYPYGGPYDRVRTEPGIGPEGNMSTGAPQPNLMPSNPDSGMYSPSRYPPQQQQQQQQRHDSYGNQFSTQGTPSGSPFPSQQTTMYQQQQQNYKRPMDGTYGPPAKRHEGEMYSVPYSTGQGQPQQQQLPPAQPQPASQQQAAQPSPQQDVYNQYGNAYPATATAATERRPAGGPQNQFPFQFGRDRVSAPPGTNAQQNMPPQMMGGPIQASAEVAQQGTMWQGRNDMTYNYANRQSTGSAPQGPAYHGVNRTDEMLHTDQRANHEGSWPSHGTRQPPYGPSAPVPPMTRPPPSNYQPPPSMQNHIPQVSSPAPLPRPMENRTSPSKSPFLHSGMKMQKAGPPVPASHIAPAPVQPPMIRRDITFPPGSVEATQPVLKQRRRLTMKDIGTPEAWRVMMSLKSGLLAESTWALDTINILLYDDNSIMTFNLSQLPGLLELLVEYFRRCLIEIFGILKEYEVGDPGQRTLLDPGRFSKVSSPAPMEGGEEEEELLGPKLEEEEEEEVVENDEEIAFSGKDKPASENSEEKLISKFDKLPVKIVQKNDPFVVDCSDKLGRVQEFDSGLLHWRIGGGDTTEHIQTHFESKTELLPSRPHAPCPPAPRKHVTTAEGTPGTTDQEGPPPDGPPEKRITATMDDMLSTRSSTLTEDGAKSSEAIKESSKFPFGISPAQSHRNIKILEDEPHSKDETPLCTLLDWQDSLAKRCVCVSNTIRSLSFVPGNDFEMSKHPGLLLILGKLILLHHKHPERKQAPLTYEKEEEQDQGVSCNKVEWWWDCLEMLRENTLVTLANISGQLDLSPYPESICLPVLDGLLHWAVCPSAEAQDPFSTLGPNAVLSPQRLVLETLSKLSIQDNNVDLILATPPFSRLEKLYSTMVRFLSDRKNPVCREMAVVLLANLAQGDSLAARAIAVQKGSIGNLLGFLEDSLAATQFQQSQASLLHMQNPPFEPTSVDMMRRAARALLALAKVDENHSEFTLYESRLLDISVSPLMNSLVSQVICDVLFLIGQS
UniProt Q9H8M2: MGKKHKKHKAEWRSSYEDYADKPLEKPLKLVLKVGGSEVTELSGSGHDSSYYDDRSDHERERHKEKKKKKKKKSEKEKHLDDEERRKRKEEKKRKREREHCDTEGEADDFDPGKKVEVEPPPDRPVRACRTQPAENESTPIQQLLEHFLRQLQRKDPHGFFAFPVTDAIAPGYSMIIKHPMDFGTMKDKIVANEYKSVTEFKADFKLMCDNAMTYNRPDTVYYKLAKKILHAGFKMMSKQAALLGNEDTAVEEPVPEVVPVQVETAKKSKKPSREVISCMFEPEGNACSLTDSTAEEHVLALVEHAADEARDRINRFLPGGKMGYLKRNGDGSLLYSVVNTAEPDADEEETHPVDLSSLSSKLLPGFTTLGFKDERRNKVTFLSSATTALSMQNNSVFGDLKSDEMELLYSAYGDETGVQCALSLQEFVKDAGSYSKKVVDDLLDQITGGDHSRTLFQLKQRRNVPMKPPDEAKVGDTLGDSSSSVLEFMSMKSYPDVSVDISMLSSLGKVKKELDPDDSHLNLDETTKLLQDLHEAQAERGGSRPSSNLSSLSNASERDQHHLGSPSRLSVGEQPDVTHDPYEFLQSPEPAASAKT
UniProt Q9NZM4: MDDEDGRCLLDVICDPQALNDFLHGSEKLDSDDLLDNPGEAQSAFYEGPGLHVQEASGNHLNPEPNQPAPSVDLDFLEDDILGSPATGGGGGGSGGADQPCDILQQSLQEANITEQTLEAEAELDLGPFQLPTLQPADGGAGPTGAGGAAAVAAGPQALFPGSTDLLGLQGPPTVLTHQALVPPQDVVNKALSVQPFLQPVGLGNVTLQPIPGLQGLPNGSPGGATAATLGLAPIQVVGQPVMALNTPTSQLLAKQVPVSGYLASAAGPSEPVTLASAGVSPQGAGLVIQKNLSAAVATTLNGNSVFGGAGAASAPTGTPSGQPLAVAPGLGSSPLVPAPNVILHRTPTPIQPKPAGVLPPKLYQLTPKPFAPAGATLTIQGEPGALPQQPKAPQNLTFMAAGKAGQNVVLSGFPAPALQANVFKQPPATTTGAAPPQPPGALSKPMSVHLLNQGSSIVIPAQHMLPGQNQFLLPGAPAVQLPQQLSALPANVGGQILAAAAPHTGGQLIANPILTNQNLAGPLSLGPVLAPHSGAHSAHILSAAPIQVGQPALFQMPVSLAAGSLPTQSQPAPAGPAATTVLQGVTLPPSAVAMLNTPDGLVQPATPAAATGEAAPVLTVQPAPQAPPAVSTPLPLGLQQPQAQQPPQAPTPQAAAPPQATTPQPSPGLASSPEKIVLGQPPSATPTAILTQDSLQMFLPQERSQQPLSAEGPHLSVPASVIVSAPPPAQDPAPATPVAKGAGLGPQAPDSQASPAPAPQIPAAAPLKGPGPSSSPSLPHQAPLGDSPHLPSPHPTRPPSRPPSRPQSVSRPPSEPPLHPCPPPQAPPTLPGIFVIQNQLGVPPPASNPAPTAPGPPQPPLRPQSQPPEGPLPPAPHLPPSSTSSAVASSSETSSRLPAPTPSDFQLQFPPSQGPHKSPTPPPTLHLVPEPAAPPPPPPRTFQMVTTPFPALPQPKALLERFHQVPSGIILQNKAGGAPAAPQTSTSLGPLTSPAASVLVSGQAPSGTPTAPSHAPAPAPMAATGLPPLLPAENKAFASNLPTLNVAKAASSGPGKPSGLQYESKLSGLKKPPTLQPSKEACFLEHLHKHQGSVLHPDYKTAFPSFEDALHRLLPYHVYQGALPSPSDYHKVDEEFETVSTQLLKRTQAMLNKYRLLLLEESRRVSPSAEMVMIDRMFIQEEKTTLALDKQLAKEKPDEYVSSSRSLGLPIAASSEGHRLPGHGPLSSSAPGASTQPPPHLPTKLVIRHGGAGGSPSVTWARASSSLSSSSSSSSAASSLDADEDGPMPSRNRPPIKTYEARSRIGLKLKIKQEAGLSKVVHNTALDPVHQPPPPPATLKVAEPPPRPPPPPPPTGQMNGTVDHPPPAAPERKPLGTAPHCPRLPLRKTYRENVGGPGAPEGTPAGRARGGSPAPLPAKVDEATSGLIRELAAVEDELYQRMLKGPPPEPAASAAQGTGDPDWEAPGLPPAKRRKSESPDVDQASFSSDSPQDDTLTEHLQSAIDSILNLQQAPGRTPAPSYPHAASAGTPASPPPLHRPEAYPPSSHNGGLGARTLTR
UniProt Q15532: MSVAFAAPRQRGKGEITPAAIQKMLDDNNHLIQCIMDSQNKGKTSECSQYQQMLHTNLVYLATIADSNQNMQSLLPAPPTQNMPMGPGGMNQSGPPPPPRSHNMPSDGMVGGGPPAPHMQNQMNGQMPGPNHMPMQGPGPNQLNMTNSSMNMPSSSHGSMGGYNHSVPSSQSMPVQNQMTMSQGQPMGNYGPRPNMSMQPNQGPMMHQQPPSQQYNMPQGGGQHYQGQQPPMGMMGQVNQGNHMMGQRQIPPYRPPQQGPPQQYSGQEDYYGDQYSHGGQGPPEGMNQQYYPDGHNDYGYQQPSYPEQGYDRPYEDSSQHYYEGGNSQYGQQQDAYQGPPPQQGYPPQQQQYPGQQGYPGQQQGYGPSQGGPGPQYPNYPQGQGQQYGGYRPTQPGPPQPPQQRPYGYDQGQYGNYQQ

Experiments:
BRG1 (SMARCA4) (human) [1] = target: BRG1 (SMARCA4) (human) (UniProt P51532); assay: co-purification of co-expressed subunits (Strep-tag affinity); subunits co-expressed in Sf9; lysate in 350 mM NaCl, 20 mM HEPES pH 7.5, 10% glycerol, 0.1% Tween; StrepTactin HP column by the twin Strep-tag of BRG1 (in ncBAF GLTSCR1 carries it too), eluted with 10 mM desthiobiotin, then Q Sepharose salt gradient; subunits seen by Coomassie SDS-PAGE and mass spectrometry, ARID1A truncations also by western blot; subunits left out in turn (BAF8 subcomplexes, ΔDPF2, ΔARID1)
BRG1 (SMARCA4) (human) [2] = target: BRG1 (SMARCA4) (human) (UniProt P51532); assay: as above; remark: listed apart in the source

- binding (BRG1 (SMARCA4) (human) [1]): binds
Molecule: ARID1A truncation A1A Δ990 (from UniProt O14497 991-2285) (domain or fragment)

- binding (BRG1 (SMARCA4) (human) [1]): binds
Molecule: ARID1A truncation A1A Δ1124 (from UniProt O14497 1125-2285) (domain or fragment)

- binding (BRG1 (SMARCA4) (human) [1]): binds
Molecule: ARID1A truncation A1A Δ1660 (from UniProt O14497 1661-2285) (domain or fragment)

- binding (BRG1 (SMARCA4) (human) [1]): binds
Molecule: ARID1A truncation A1A Δ1698 (from UniProt O14497 1699-2285) (domain or fragment)

- binding (BRG1 (SMARCA4) (human) [1]): binds
Molecule: ARID1A truncation A1A Δ1960 (from UniProt O14497 1961-2285) (domain or fragment)

- binding (BRG1 (SMARCA4) (human) [1]): binds
Molecule: BAF170 (SMARCC2) (from UniProt Q8TAQ2 1-1214)

- binding (BRG1 (SMARCA4) (human) [1]): binds
Molecule: BCL7a (from UniProt Q4VC05 1-210)

- binding (BRG1 (SMARCA4) (human) [1]): binds
Molecule: BRD9 (from UniProt Q9H8M2 1-597)

- binding (BRG1 (SMARCA4) (human) [1]): binds
Molecule: DPF2 (from UniProt Q92785 1-391)

- binding (BRG1 (SMARCA4) (human) [1]): binds
Molecule: GLTSCR1 (from UniProt Q9NZM4 1-1560)

- binding (BRG1 (SMARCA4) (human) [1]): binds
Molecule: SS18 (from UniProt Q15532 1-418)

- binding (BRG1 (SMARCA4) (human) [2]): binds
B1: PHF10 (protein, UniProt Q8WUB8 1-498)
chain: MAAAAGPGAALSPRPCDSDPATPGAQSPKDDNEDNSNDGTQPSKRRRMGSGDSSRSCETSSQDLGFSYYPAENLIEYKWPPDETGEYYMLQEQVSEYLGVTSFKRKYPDLERRDLSHKEKLYLRELNVITETQCTLGLTALRSDEVIDLMIKEYPAKHAEYSVILQEKERQRITDHYKEYSQMQQQNTQKVEASKVPEYIKKAAKKAAEFNSNLNRERMEERRAYFDLQTHVIQVPQGKYKVLPTERTKVSSYPVALIPGQFQEYYKRYSPDELRYLPLNTALYEPPLDPELPALDSDGDSDDGEDGRGDEKRKNKGTSDSSSGNVSEGESPPDSQEDSFQGRQKSKDKAATPRKDGPKRSVLSKSVPGYKPKVIPNAICGICLKGKESNKKGKAESLIHCSQCENSGHPSCLDMTMELVSMIKTYPWQCMECKTCIICGQPHHEEEMMFCDMCDRGYHTFCVGLGAIPSGRWICDCCQRAPPTPRKVGRRGKNSKEG
